Experimental data reported in PubChem BioAssay (NCATS).
Inconclusive results, whose numbers are uncertain, are shown with a selection of clear calls. A potency beside an inconclusive call is a rough fit, not a confirmed value. Active and inactive are the calls of the source. Calls follow the shape of the dose curve; as a rule, active = well fitted cell-killing curve with a large enough effect; inconclusive = small, poorly fitted or top-dose-only effect, or effect the other way; inactive = no such curve, though single readings can be large or run the other way.
Potency is read from the fitted curve at half-maximal effect.

Assay: Quantitative High-Throughput drug screen in 47 multiple myeloma cell lines against the NCATS MIPE library collection: Delta47_JCRB cell viability assay (AID 1918925; also: nearly all actives have a fitted effect of over 45% in size;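 as to viability (% of DMSO): 0% = media-only wells and 100% = DMSO-only wells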)
Conditions: Delta47 myeloma viability, CellTiter-Glo ATP, 48 h; viability (% of DMSO): at 45.8 µM (top of the series)
In short: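 Viability readout: CellTiter-Glo luminescence following 5 min room-temperature incubation with reagent. Prior exposure: 48 h, 37C, humidified 5% CO2, 500 cells per well.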
In the case of `C[C@H](Cn1cnc2c(N)ncnc21)OCP(=O)(O)O`, the “viability (% of DMSO)” value is reported as inactive: 130%. With `CCCc1cc(C(N)=S)ccn1` the “viability (% of DMSO)” value was inactive: 98.8%. In the case of `C[C@]12C=CC(=O)N[C@@H]1CC[C@H]1[C@H]3CC[C@@H](C(=O)Nc4cc(C(F)(F)F)ccc4C(F)(F)F)[C@@]3(C)CC[C@@H]12`, the Potency is reported as inconclusive: 11.8 µM [cytotoxic, single point]. For `Cc1cnc(CNC(=O)c2c(=O)c3ccc(N4CCCN(C)CC4)nc3n3c2sc2ccccc23)cn1`, the Potency was active: 0.457 µM. With `CCCCCCCN(CC)CCCC(O)c1ccc(NS(C)(=O)=O)cc1` (configuration not stated) the Potency was inconclusive: 29.6 µM [cytotoxic, single point]. For `CC(=O)O[C@H]1C[C@@H]2CC[C@H]3[C@H]4C[C@H]([N+]5(C)CCCCC5)[C@@H](OC(C)=O)[C@@]4(C)CC[C@@H]3[C@@]2(C)C[C@H]1[N+]1(C)CCCCC1`, the “viability (% of DMSO)” value was inactive: 110%. With `CNC(=O)c1ccccc1Nc1nc(Nc2ccc(N3CCOCC3)cc2OC)ncc1Cl` the Potency was active: 0.148 µM.
